# Laboratory results as given in PubChem BioAssay AID445 (National Center for Advancing Translational Sciences (NCATS), 2006).
# Some of the results follow. These are further read-outs of the screen, such as a control signal, another cell line or another target. No call is given for them. Compounds called inactive in the main read-out are mostly missing here. Potencies come from curve fits of mixed quality, noted in brackets.
# Assay: IkB Signaling
# Conditions: ABC-DLBCL IkBa-CBG/CBR dual luciferase ratio (green luciferase fused to IkBa over red control in OCI-Ly3 lymphoma cells), 4 h; measured here: control luc red channel unless noted
# Procedure, shortened: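 Curves were fitted separately to fusion (green), unfused (red) and ratio luminescence, then classed by r2, magnitude and activity. Cells: OCI-Ly3, 4 h compound plus doxycycline at 37C; 10 uM MG-132 defined full response.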
row,Compound,AC50
1,CCN1CCSc2ccc(C(=O)NCc3ccc(F)cc3)cc21,"39.8 µM [falling, single point]"
2,Cc1ccc(CNC(=O)CCSCc2cnn(-c3ccccc3)c2-n2cccc2)cc1,"39.8 µM [falling, single point]"
3,CC(C)c1ccc(OCC(=O)Nc2cc(-c3ccccc3)no2)cc1,"15.8 µM [falling, partial curve]"
4,COc1cc(CN(C(=O)c2ccccc2Br)c2ccccn2)cc(OC)c1OC,"25.1 µM [falling, single point]"
5,CC(=O)Nc1ccc(S(=O)(=O)N2CCN(c3nc(NC4CCCC4)c4ccccc4n3)CC2)cc1,"10 µM [falling, partial curve]"
6,Cc1ccc(C)c(N2CCN(C(=O)CCS(=O)(=O)c3ccc4c(c3)oc(=O)n4C)CC2)c1,"39.8 µM [falling, single point]"
7,Cc1ccc(NC(=O)CN2C(=O)C(c3ccc(C)cc3)=NC23CCCCCC3)cc1,"10 µM [falling, partial curve]"
8,CCc1ccc(NC(=O)c2cccc(N3CCCS3(=O)=O)c2)cc1,"39.8 µM [falling, single point]"
9,COc1ccc2c(c1)c(=O)c(S(=O)(=O)c1ccc(Cl)cc1)cn2Cc1cc(C)ccc1C,"5.01 µM [falling, partial curve]"
10,CCn1ccc2c(OCC(=O)Nc3ccc(C)c(Cl)c3)cccc2c1=O,"39.8 µM [falling, single point]"
11,COc1cccc(N2CCN(C(=O)CCSCc3ccccc3F)CC2)c1,"39.8 µM [falling, single point]"
12,CCOC(=O)C1CCN(S(=O)(=O)c2cc3c4c(c2)C(C)C(=O)N4CCC3)CC1 (stereo not given),"7.94 µM [rising, single point]"
13,Cc1cccc(C(=O)Nc2c(C(=O)N3CCN(c4ccc(F)cc4)CC3)oc3ccccc23)c1,"10 µM [falling, partial curve]"
14,CCc1ccc2[nH]c(=O)c(CN(Cc3ccccc3OC)Cc3nnnn3Cc3ccco3)cc2c1,"15.8 µM [falling, partial curve]"
15,O=C(Cc1ccc(Cl)cc1)NCC(c1cccs1)S(=O)(=O)c1ccccc1 (stereo not given),"39.8 µM [falling, single point]"
16,COc1ccc(CC(=O)Nc2ccc(-c3nnc(-c4ccccc4)o3)cc2)cc1OC,"0.01 µM [falling, full curve]"
17,Cc1ccc(C)c(NC(=O)CSc2nnc3[nH]c(=O)cc(-c4ccccc4)n23)c1,"25.1 µM [falling, partial curve]"
18,CCOc1ccc(NC(=O)Cn2c(=O)n(CC3CCC(C(=O)NCCc4ccccc4)CC3)c(=O)c3ccccc32)cc1 (stereo not given),"39.8 µM [falling, single point]"
19,COc1ccc(NC(=O)CSc2oc(-c3ccco3)nc2S(=O)(=O)c2ccc(C)cc2)c(OC)c1,"0.0251 µM [falling, full curve, poor fit]"
20,COc1ccccc1C(=O)Nc1cccc(C(=O)OCc2cc(=O)n3c4c(sc3n2)CCCC4)c1,"3.16 µM [falling, full curve]"

row,Compound,AC50
1,Cc1c(CNC(C)CCc2ccccc2)c(C(=O)O)c(C)n1Cc1ccc(F)cc1 (stereo not given),"20 µM [falling, single point]"
2,Cc1csc2nc(COC(=O)c3cccc(NC(=O)COc4ccccc4Cl)c3)cc(=O)n12,"5.01 µM [falling, full curve]"
3,CCCC(=O)c1ccc(N2CCN(C(=O)c3ccccc3Br)CC2)c(F)c1,"10 µM [falling, partial curve]"
4,COc1ccc(CNC(=O)CC2N=C3c4ccccc4N=C(SCC(=O)Nc4ccc(C(C)C)cc4)N3C2=O)cc1 (stereo not given),"39.8 µM [falling, single point]"
5,COC(=O)CCCn1c(-c2ccc(C)cc2)c(C)n2c3c(=O)n(C)c(=O)n(C)c3nc12,"25.1 µM [falling, single point]"
6,COc1ccc(-c2cn3c(n2)sc2cc(C(=O)NC(C)C45CC6CC(CC(C6)C4)C5)ccc23)cc1 (stereo not given),"39.8 µM [falling, single point]"
7,Cc1ccn2c(Nc3ccccc3C)c(-c3ccncc3)nc2c1,"39.8 µM [falling, single point]"
8,Nc1nc(COc2ccc3ccccc3c2)cs1,"12.6 µM [falling, single point]"
9,Cc1ccc(CNC(=O)C2CCN(Cc3nc(-c4ccccc4C)oc3C)CC2)cc1,"39.8 µM [falling, single point]"
10,Cc1cccc(NC(=O)CSc2nnc(CNC(=O)c3cccc(C)c3)n2-c2ccccc2)c1,"3.98 µM [falling, partial curve]"
11,COc1ccc(-c2noc(CN(C(=O)c3ccccc3Cl)C(C)C)n2)cc1,"25.1 µM [falling, partial curve]"
12,COc1ccc(OCc2nnc(SC(C)C(=O)Nc3nccs3)n2-c2ccccc2)cc1 (stereo not given),"15.8 µM [falling, partial curve]"
13,Cc1ccc2nc(CSc3nnc(NC(=O)CC(C)C)s3)cc(=O)n2c1,"25.1 µM [falling, single point]"
14,Cc1ccc(Cn2c(CN3CCC(C(=O)NCc4cccnc4)CC3)cc3ccccc32)cc1,"12.6 µM [falling, partial curve]"
15,CCOc1ccc(CNC(=O)CCC(=O)N2Cc3ccccc3Oc3ncccc32)cc1,"20 µM [falling, single point]"
16,CCOc1ccccc1NC(=O)c1ccc2c(c1)CCN2S(C)(=O)=O,"25.1 µM [falling, single point]"
17,COc1cc(C2c3c(-c4cc(C)ccc4O)n[nH]c3C(=O)N2Cc2cccnc2)cc(OC)c1OC (stereo not given),"25.1 µM [rising, partial curve]"
18,Cc1ccc(-n2c(SCC(=O)N3CCc4ccccc43)nc3c([nH]c4ccccc43)c2=O)cc1,"10 µM [rising, partial curve]"
19,CC(C)c1nnc(NC(=O)c2cccs2)s1,"15.8 µM [falling, partial curve]"
20,O=C(Nc1ccc(OC(F)(F)F)cc1)c1cc2c(=O)n3ccccc3nc2s1,"1.26 µM [rising, full curve]"

# Of the compounds above, these contain a furan ring, fused or not:
row,Compound,AC50
13,Cc1cccc(C(=O)Nc2c(C(=O)N3CCN(c4ccc(F)cc4)CC3)oc3ccccc23)c1,"10 µM [falling, partial curve]"
14,CCc1ccc2[nH]c(=O)c(CN(Cc3ccccc3OC)Cc3nnnn3Cc3ccco3)cc2c1,"15.8 µM [falling, partial curve]"
19,COc1ccc(NC(=O)CSc2oc(-c3ccco3)nc2S(=O)(=O)c2ccc(C)cc2)c(OC)c1,"0.0251 µM [falling, full curve, poor fit]"
